# This is one part of the list. Further columns of the screen follow, without active or inactive calls. Most of these compounds were active or inconclusive in the main read-out, so they are no random draw. Words in brackets tell the shape of the fitted curve; partial curves, single points and poor fits give uncertain potencies.
# Test: qHTS Assay for Lipid Storage Modulators in Drosophila S3 Cells;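 as to cell number change: cells counted by Cell Tracker Red CMTPX staining in the red channel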
# Conditions: BODIPY lipid droplet fluorescence, 18-24 h; for cell number change: measured here: cell count max response, cells fed with added oleic acid
# Summary of the method: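 Drosophila S3 cells loaded with oleic acid (400 uM, as added) and compounds at several concentrations; lipid droplets imaged by 488-nm laser-scanning cytometry, 500–530 nm intensity and object ratio to cell channel. Percent activity normalized to 20 uM Triacsin C.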
# [1] = measured here: lipid fluorescence (Fed channel) AC50, cells fed with added oleic acid
# [2] = measured here: cell number channel AC50, cells fed with added oleic acid
SMILES,cell number change,AC50 [1],AC50 [2]
COC(=O)c1[nH]c2cc(OC)ccc2c1NC(=O)c1c(F)cccc1F,-7.14%,"0.13 µM [falling, full curve, poor fit]",
COc1ccc(NC(=O)N2CCCC2C(=O)NC2CCCC2)cc1 (centres undefined),6.67%,"29.1 µM [rising, partial curve, poor fit]",
Cn1c(=O)[nH]c(=O)c2c1[nH]c(=S)n2Cc1ccc(Cl)cc1,-44.5%,"29.1 µM [falling, single point]","29.1 µM [falling, single point]"
Cc1nnc(N/N=C/c2ccccc2C(F)(F)F)n1N,-20.7%,,
C=CCn1c(C)cc(-c2csc(N)n2)c1C,67.3%,,"23.1 µM [rising, single point]"
Nc1nc(-c2ccccn2)nc(N)c1Cc1ccc(Cl)cc1Cl,-45.8%,,"2.06 µM [rising, single point]"
CCNC(=S)N(Cc1ccc(OC)cc1)C1CC(=O)N(c2ccc(OCC)cc2)C1=O (centres undefined),,"0.58 µM [falling, single point]","0.651 µM [falling, single point]"
COC(=O)Cc1c(O)ccn(CCc2ccc(OC)c(OC)c2)c1=O,-15.1%,"29.1 µM [rising, single point]","0.58 µM [falling, partial curve, poor fit]"
CCOC(=O)c1ccccc1NC1c2ccccc2C(=O)N1C1CCN(C(=O)OCC)CC1 (centres undefined),-15.6%,"5.8 µM [falling, partial curve]",
Cn1c(=O)n(C)c2cc(N3CCCC3)c(NC(=O)c3cccc(F)c3)cc21,91.1%,"18.4 µM [rising, single point]","29.1 µM [rising, single point]"
CC(C)C(NC(=O)c1c(F)cccc1F)C(=O)N1CCN(S(=O)(=O)/C=C/c2ccccc2)CC1 (centres undefined),-15.3%,"25.9 µM [rising, single point]",
CCC(=O)c1ccc(OCC(=O)OCC(=O)c2cc(C)n(C)c2C)cc1,-13.5%,"29.1 µM [rising, single point]",
Cn1c(NC(=O)CCC2CCCCC2)cc(=O)n(C)c1=O,-47%,"23.1 µM [falling, single point]","16.4 µM [falling, partial curve, poor fit]"
CCCCn1c(N)c(N(CCOC)C(=O)C2CC(=O)N(Cc3ccc(C)cc3)C2)c(=O)[nH]c1=O (centres undefined),-5.98%,,
COc1ccc(Cc2nnc(NCCO)[nH]c2=O)cc1,17.1%,,
O=C(OCc1nnc(-c2ccccc2)o1)C1CC(=O)N(CCc2ccccc2)C1 (centres undefined),3.61%,"2.59 µM [rising, partial curve]",
CCOC(=O)Cn1nc(C)c(NC(=O)COc2ccccc2)c1C,-7.69%,"4.11 µM [falling, partial curve, poor fit]","6.51 µM [falling, single point]"
CC(C)C[C@H](NC(=O)Nc1ccc2c(c1)OCCO2)C(=O)O,,"23.1 µM [falling, partial curve]",
O=S(=O)(Nc1ccccc1)c1cccc2nonc12,-8.56%,"7.31 µM [rising, partial curve]",

# One compound at a time (already shown).
# O=C(OCc1nnc(-c2ccccc2)o1)C1CC(=O)N(CCc2ccccc2)C1 (centres undefined) is listed with cell number change: 3.61%; AC50 [1]: 2.59 µM [rising, partial curve]
# O=S(=O)(Nc1ccccc1)c1cccc2nonc12 is listed with cell number change: -8.56%; AC50 [1]: 7.31 µM [rising, partial curve]

# (list continues)

SMILES,cell number change,AC50 [1],AC50 [2]
CCCN=C(C)C1=C(O)c2ccccc2C1=O,0.199%,"6.51 µM [rising, full curve, poor fit]",
COc1ccc(S(=O)(=O)NC(C)(C)C)cc1-c1nnc2c3ccccc3c(C)nn12,,"2.91 µM [rising, partial curve]","1.64 µM [rising, partial curve]"
Cc1ccc(C(=O)NN(CCC(=O)NC(C)(C)C)C2=NS(=O)(=O)c3ccccc32)cc1,10.5%,"25.9 µM [rising, single point]",
CCOc1ccc(OCCOCCOc2ccccc2Cl)cc1,30.7%,"18.4 µM [rising, partial curve]","32.6 µM [rising, single point]"
COc1cc(OC)cc(C(=O)OCC(=O)NC(C)CCc2ccccc2)c1 (centres undefined),82%,,"18.4 µM [rising, single point]"
CCCCCOc1ccc(C(=O)CCC(=O)NNC(=O)c2ccncc2)cc1,-25%,,
COCCNc1nc2c(c(=O)n(Cc3cccc(Cl)c3)c(=O)n2C)n1C,5%,,
CC1(C)CC(=O)C=C(NCc2cccs2)C1,-34.7%,"2.31 µM [falling, full curve, poor fit]",
O=C(N/N=C/c1cc(Br)cc([N+](=O)[O-])c1O)c1ccc(NC(=O)c2ccc(F)cc2)cc1,-12%,,
Cc1cc(NC(=O)Cc2ccccc2)nc2c1c(=O)oc1ccccc12,,"1.03 µM [rising, full curve]","0.411 µM [rising, full curve]"
CCN1C(=O)/C(=C\N2CCCc3ccccc32)SC1=S,7.26%,"29.1 µM [rising, single point]",
c1ccc2nc(-c3ccc4c(c3)OCO4)ccc2c1,,"0.058 µM [rising, full curve]","1.64 µM [rising, partial curve]"
CC12CC(NC(=O)N1c1cccc(C(=O)N3CCN(c4ccccc4)CC3)c1)c1ccccc1O2 (centres undefined),-11.4%,,
O=[N+]([O-])c1cccnc1N1CCOCC1,-6.36%,"0.461 µM [rising, full curve, poor fit]","1.16 µM [rising, full curve]"
Cc1ccc(NC(=O)c2ccc(Cl)nc2)cc1,,"6.51 µM [falling, single point]",
Cc1cc(O)c(/C=N/Nc2ccc(F)cc2)c(=O)o1,33.6%,,
COc1cc2c(cc1OC)CN(C(=O)Cc1ccc(OC)c(S(=O)(=O)N3CCOCC3)c1)CC2,9.09%,,"1.84 µM [falling, partial curve]"
COc1ccc(-c2nnc3sc(CCN4C(=O)c5ccccc5C4=O)nn23)cc1,-17.4%,"3.26 µM [rising, full curve, poor fit]",
CC(NCc1cccc(S(=O)(=O)N(C)C)c1)c1ccc(F)cc1 (centres undefined),-43.6%,"29.1 µM [falling, single point]","29.1 µM [falling, single point]"
